# The full ranking holds about 33,000 sequences; the median of “E-score (-0.5 to 0.5)” is about -0.016, and the highest 2% start at about 0.3. This is one part of the list.
# Molecular target: T1, Yer184c (UniProt P39961)
# T1 sequence: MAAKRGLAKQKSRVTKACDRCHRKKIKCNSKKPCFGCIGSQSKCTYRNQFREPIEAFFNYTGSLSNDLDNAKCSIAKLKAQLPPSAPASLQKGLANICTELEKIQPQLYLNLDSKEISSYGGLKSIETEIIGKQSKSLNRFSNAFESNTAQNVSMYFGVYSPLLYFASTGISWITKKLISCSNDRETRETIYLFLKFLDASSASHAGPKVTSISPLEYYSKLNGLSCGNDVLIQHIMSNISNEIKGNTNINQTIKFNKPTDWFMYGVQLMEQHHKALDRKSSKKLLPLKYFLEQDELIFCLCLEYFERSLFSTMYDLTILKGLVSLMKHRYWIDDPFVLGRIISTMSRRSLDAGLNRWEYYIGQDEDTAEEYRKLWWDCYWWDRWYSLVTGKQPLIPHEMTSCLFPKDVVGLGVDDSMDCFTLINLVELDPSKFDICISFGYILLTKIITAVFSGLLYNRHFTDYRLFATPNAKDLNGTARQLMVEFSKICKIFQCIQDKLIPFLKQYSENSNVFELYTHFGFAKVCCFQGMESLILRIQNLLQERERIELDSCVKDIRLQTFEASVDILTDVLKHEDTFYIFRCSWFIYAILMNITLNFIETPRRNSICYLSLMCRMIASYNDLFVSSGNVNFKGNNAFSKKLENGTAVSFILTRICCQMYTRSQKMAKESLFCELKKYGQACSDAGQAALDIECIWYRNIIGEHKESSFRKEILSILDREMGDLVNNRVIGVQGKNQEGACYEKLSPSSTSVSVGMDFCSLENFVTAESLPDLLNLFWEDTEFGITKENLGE
# Assay: PBM E-score (8-mer binding enrichment) (E-score (-0.5 to 0.5)); higher = stronger / more preferred TF binding
# Conditions: protein concentration: 100 nM; construct: GST-full length
# Protocol: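 Universal 'all 10-mer' protein binding microarrays (Agilent AMADID 015681) probed with GST-tagged S. cerevisiae TFs (full-length or DBD) made by in vitro transcription/translation (PURExpress), about 100-200 nM. Bound TF was detected with fluorescent anti-GST. Each ungapped 8-mer (which stands for itself and its reverse complement) is scored by the PBM enrichment score (E-score), a modified Wilcoxon-Mann-Whitney statistic from -0.5 to +0.5, computed with the Universal PBM Analysis Suite. Scale: above 0.35 generally sequence-specific binding.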
row,Sequence,PBM E-score
1,AGGGGATC,-0.237
2,AGCGACCC,-0.136
3,ATTGTCAG,0.127
4,ACACGCTC,0.122
5,GGGGCGCA,-0.328
6,ACATTGAA,0.183
7,ATCTAGCC,0.00276
8,CAGACTCG,-0.218
9,ACCTCAGC,-0.082
10,CTTGCCGA,0.22
11,CCGCACCG,0.0286
12,ATTAGCTC,0.00455
13,ATAACCTA,-0.0572
14,AGGGCATG,-0.163
15,ACCGTGAA,0.202
16,AGCCTACA,-0.0273
17,GGGCCTGA,-0.276
18,CACTCGCC,-0.0526
19,GACGAATA,0.215
20,CGTACAGA,-0.0312
21,ATCTTCAA,0.187
22,AATATGAG,0.0728
23,AAGGAATG,-0.0413
24,ACAGGTGC,-0.0628

row,Sequence,PBM E-score
1,AGTGCCAG,-0.28
2,ACGTAGTA,0.0723
3,ACGGGCGA,0.0137
4,ACTGATGG,-0.135
5,CAACAGCC,0.0881
6,CCGGTACA,0.278
7,CACGAAGA,0.107
8,ATGTCATC,-0.243
9,AGCTTAAG,-0.0855
10,AAAGAGCC,-0.164
11,ATGGCCTG,-0.0401
12,CTTTGCTC,-0.0306
13,TAGCTGAA,0.0492
14,GTCTGCAC,-0.192
15,CCCCGCTC,-0.255
16,ACGGTCCA,-0.0592
17,CGATCAAC,-0.0208
18,GCTATATA,0.104
19,TACACTAA,-0.0235
20,ACATCACG,-0.0968
21,ACCGCCCC,-0.106
22,ATGAGATG,-0.0721
23,CATCAGAA,0.0411
24,GAAACCCC,-0.0567

row,Sequence,PBM E-score
1,AGGGCTGC,-0.145
2,GGGTTTGA,0.0443
3,ATTTCGGA,0.348
4,GTGTGTCA,-0.0284
5,GGACACGA,-0.0943
6,AACTAGGC,-0.0776
7,CGCTTCCG,0.286
8,AGTTCCCG,0.223
9,AGCAAGAA,0.11
10,CAGTCCTA,-0.268
11,CAGCGATG,-0.107
12,GAGTTGAC,-0.0176
13,GAGCCAAC,-0.0948
14,ACCGGACT,0.101
15,CGGATAAC,0.34
16,GAACCGAC,0.213
17,CAGTATCC,-0.145
18,CTCCCTAC,-0.22
19,GGGCGCAC,-0.248
20,ATAAAATG,0.0585
21,AATATTAC,0.215
22,ACTCTGGC,-0.105
23,CGTGGTCA,0.0155
24,AAGGACCA,-0.0606

# A section taken from the entries so far:
row,Sequence,PBM E-score
10,CAGTCCTA,-0.268
11,CAGCGATG,-0.107
12,GAGTTGAC,-0.0176
13,GAGCCAAC,-0.0948
14,ACCGGACT,0.101
15,CGGATAAC,0.34
16,GAACCGAC,0.213

# Further results follow.

row,Sequence,PBM E-score
1,ATATCGCA,-0.157
2,AGCGGGAT,-0.112
3,TAAGGGGA,-0.0507
4,ACCCCCAC,-0.418
5,ATAACAAT,0.115
6,ATCATCGG,0.261
7,AGAGTCAT,-0.268
8,GCGCGTTA,0.0387
9,AGCGTCAA,-0.00317
10,ATTGACGC,-0.025
11,ACTTCGAA,0.123
12,ACAGATGG,-0.286
13,AGGATGAC,-0.285
14,ATGGTCGA,-0.119
15,ACACGTGT,-0.226
16,GGAAGAGA,0.065
17,CCGCCAGC,-0.161
18,GAACGTCA,-0.303
19,CGGTATTA,0.251
20,ATTTCATG,-0.173
21,GATATGGC,-0.259
22,CGAAATGA,0.226

# From the supplement of paper PMC3334620
